Values of other authors, collected in patent US20240209370A1, “METHODS OF MODULATING ALK” (SOCIETE DES PRODUITS NESTLE S.A., priority 2017, published 2024).
Entries after “also recorded” stand apart in the source; their conditions may differ. At least one structure is not confirmed: it was looked up by name or label, or the drawing left a doubt.

Chains of the proteins cited; added tags and fusions are not shown. Residues count along the entry.
UniProt Q9UM73, 19-1620: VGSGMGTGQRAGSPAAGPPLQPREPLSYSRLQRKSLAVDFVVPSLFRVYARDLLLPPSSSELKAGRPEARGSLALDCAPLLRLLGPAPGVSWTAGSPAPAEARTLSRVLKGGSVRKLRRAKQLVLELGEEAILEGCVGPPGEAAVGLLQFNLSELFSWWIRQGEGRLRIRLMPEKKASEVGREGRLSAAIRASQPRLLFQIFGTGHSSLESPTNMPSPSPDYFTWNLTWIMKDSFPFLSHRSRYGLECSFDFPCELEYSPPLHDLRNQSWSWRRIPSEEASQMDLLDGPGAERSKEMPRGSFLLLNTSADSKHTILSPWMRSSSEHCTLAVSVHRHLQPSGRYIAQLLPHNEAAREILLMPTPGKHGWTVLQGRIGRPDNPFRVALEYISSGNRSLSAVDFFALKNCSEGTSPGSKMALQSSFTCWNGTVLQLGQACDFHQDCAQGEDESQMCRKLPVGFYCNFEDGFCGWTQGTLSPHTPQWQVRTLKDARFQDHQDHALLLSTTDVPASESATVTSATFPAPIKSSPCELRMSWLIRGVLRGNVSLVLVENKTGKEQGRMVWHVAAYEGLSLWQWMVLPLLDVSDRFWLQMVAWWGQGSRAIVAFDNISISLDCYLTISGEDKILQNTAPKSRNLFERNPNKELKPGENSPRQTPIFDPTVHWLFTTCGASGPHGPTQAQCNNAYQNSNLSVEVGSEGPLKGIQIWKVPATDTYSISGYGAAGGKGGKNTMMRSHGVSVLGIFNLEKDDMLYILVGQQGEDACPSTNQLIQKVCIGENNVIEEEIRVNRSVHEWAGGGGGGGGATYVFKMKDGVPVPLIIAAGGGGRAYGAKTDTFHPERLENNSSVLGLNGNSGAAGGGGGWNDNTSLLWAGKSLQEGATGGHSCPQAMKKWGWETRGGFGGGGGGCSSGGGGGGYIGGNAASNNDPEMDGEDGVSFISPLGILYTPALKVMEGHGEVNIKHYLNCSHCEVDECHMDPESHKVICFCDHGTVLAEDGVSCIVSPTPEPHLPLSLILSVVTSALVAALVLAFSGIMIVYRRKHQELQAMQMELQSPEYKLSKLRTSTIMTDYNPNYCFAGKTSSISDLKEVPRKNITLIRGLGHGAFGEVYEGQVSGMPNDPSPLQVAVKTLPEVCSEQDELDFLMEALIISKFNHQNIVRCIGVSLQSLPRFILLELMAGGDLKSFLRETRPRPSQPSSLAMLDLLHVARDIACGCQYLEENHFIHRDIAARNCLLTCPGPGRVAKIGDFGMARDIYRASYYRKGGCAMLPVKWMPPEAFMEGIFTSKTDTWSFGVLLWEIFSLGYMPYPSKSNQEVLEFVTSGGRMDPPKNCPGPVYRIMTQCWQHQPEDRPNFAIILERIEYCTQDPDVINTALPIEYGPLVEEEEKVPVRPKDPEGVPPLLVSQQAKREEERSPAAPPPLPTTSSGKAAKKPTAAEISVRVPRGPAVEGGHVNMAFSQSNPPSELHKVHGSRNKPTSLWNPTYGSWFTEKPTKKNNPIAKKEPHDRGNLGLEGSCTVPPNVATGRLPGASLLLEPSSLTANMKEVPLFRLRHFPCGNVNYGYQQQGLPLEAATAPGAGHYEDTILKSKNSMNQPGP

Molecular target: ALK (Homo sapiens, UniProt Q9UM73)
Settings: effect on ALK activity or expression as listed from ctdbase, Medline or cited patents

Compound	Interaction Actions
CCC(C)(C)C(=O)O[C@H]1C[C@@H](C)C=C2C=C[C@H](C)[C@H](CC[C@@H]3C[C@@H](O)CC(=O)O3)[C@H]21 [Simvastatin]	affects cotreatment,; also recorded: decreases expression
C=CCNC1=C2C[C@@H](C)C[C@H](OC)[C@H](O)[C@@H](C)/C=C(\C)[C@H](OC(N)=O)[C@@H](OC)/C=C\C=C(/C)C(=O)NC(=CC1=O)C2=O [tanespimycin]	decreases activity
